Literature values, collected in patent publication US20120021476A1, “Trace Element Solution For Biogas Methods” (AGRAFERM TECHNOLOGIES AG, priority 2007, published 2012).
At least one structure is not confirmed: it was looked up by name or label, or the drawing left a doubt.

Tests used:
[1] = cited from earlier work
[2] = cited from earlier work; remark: listed apart in the source
[3] = cited from earlier work; remark: listed apart in the source

C[C@H](N)C(=O)O [C3H7O2N, Alanine]
very well: complexing of Cu^2+ in words [1] | complexing of Zn^2+ in words [2] | complexing of Ni^2+ in words [3]
